1 molecule from PMC3812156 can be followed below.

The chains behind the UniProt entries cited, without tags or fusion partners.
UniProt Q9JK91: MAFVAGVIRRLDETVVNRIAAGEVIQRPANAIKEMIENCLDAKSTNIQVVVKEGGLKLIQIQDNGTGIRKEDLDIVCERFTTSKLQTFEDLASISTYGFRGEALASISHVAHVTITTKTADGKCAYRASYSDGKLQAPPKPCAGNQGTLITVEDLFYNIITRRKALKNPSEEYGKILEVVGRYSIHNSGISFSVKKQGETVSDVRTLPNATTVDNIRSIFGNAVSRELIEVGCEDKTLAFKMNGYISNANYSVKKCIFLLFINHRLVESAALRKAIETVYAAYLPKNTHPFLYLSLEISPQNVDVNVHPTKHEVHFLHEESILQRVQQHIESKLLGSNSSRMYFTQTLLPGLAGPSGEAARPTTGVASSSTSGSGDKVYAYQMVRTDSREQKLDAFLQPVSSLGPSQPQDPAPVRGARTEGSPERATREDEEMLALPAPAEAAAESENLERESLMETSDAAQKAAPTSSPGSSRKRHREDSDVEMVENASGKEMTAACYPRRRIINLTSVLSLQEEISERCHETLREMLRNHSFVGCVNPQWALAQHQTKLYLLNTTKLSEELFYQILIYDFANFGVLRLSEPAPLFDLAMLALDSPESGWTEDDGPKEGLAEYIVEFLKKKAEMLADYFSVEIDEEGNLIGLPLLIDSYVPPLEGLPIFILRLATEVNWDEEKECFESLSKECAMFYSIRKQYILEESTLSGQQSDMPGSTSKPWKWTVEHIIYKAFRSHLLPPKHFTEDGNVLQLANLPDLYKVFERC
UniProt Q9Z2D7: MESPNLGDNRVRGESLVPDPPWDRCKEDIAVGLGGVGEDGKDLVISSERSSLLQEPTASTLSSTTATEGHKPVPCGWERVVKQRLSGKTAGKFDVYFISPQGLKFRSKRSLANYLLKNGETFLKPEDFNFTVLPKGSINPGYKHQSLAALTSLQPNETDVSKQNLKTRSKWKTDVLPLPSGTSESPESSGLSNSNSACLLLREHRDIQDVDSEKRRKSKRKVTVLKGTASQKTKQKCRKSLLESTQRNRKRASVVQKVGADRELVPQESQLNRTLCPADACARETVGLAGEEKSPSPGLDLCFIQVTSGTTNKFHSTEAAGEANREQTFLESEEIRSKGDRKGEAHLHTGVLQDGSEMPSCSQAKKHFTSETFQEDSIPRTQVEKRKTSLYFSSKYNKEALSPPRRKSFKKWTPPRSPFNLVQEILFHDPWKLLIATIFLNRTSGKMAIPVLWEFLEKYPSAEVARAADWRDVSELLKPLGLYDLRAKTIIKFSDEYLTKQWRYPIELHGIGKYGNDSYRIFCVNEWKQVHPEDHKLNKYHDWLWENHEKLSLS

Experiment [1] concerns the target MutL homologue 1 (MLH1) (mouse (endogenous in CH12.F3)) (UniProt Q9JK91). Kind of experiment: co-IP; nuclear extracts (100 µg) of CH12.F3 cells induced with CIT for 24 hours; IP with anti-MLH1 or anti-MBD4 Abs (anti-GFP as control) and protein-A beads, 4°C; DTT omitted, final NaCl 100 mM; Western blot. A general note: Immunoblotting shows a protein as a band on a membrane.

Experiment [2] deals with Methyl CpG binding domain protein 4 (MBD4) (mouse (endogenous in CH12.F3)) (UniProt Q9Z2D7). The experiment is described as above.

No constants are given. Whether binding was seen depends on the method and setting. In cells and extracts the contact can be indirect. Some binding calls cover weakened binding; strength is not graded here.

B1: postmeiotic segregation increased 2 (PMS2) (protein, UniProt P54279 1-859)
chain: MEQTEGVSTECAKAIKPIDGKSVHQICSGQVVLSLSTAVKELIENSVDAGATTIDLRLKDYGVDLIEVSDNGCGVEEENFEGLALKHHTSKIQEFADLTQVETFGFRGEALSSLCALSDVTISTCHGSASVGTRLVFDHNGKITQKTPYPRPKGTTVSVQHLFYTLPVRYKEFQRNIKKEYAKMVQVLQAYCIISAGVRVSCTNQLGQGKRQPVVCTSGSSGMKENIGSVFGQKQLQSLIPFVQLPPSDAVCEEYGLSTSRTPQNLFYVSGFISQCTHGAGRSATDRQFFFINQRPCDPAKVSKLVNEVYHMYNRHQYPFVVLNVSVDSECVDINVTPDKRQILLQEEKLLLAVLKTSLIGMFDSDANKLNVNQQPLLDVEGNLVKLHTAELEKPVPGKQDNSPSLKSTADEKRVASISRLREAFSLHPTKEIKSRGPETAELTRSFPSEKRGVLSSYPSDVISYRGLRGSQDKLVSPTDSPGDCMDREKIEKDSGLSSTSAGSEEGFSTPEVASSFSSDYNVSSPEDRPSQETINCGDLDCRPPGTGQSLKPEDHGYQCKALPLARLSPTNAKRFKTEERPSNVNISQRLPGPQSTSAAEVDVAIKMNKRIVLLEFSLSSLAKRMKQLQHLKAQNKHELSYRKFRAKICPGENQAAEDELRKEISKSMFAEMEILGQFNLGFIVTKLKEDLFLVDQHAADEKYNFEMLQQHTVLQAQRLITPQTLNLTAVNEAVLIENLEIFRKNGFDFVIDEDAPVTERAKLISLPTSKNWTFGPQDIDELIFMLSDSPGVMCRPSRVRQMFASRACRKSVMIGTALNASEMKKLITHMGEMDHPWNCPHGRPTMRHVANLDVISQN
As to B1, the binding entry in experiment [1] and in experiment [2] was “binds” each time.
